Results of single-concentration screens

Chains of the proteins cited; added tags and fusions are not shown.
UniProt P9WPC5, whole entry: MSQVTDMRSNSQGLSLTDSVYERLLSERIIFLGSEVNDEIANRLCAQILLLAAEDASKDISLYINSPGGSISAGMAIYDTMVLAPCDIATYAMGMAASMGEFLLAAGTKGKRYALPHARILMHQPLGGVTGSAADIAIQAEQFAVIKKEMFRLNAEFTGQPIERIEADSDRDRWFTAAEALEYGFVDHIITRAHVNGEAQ
UniProt P9WPC3, whole entry partner: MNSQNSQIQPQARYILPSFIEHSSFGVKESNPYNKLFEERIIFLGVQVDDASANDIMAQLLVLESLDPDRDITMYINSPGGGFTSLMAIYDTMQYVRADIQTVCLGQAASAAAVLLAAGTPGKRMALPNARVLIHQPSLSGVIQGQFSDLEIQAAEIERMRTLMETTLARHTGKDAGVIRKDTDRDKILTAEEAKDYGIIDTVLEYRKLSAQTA
UniProt I6X8D2, whole entry: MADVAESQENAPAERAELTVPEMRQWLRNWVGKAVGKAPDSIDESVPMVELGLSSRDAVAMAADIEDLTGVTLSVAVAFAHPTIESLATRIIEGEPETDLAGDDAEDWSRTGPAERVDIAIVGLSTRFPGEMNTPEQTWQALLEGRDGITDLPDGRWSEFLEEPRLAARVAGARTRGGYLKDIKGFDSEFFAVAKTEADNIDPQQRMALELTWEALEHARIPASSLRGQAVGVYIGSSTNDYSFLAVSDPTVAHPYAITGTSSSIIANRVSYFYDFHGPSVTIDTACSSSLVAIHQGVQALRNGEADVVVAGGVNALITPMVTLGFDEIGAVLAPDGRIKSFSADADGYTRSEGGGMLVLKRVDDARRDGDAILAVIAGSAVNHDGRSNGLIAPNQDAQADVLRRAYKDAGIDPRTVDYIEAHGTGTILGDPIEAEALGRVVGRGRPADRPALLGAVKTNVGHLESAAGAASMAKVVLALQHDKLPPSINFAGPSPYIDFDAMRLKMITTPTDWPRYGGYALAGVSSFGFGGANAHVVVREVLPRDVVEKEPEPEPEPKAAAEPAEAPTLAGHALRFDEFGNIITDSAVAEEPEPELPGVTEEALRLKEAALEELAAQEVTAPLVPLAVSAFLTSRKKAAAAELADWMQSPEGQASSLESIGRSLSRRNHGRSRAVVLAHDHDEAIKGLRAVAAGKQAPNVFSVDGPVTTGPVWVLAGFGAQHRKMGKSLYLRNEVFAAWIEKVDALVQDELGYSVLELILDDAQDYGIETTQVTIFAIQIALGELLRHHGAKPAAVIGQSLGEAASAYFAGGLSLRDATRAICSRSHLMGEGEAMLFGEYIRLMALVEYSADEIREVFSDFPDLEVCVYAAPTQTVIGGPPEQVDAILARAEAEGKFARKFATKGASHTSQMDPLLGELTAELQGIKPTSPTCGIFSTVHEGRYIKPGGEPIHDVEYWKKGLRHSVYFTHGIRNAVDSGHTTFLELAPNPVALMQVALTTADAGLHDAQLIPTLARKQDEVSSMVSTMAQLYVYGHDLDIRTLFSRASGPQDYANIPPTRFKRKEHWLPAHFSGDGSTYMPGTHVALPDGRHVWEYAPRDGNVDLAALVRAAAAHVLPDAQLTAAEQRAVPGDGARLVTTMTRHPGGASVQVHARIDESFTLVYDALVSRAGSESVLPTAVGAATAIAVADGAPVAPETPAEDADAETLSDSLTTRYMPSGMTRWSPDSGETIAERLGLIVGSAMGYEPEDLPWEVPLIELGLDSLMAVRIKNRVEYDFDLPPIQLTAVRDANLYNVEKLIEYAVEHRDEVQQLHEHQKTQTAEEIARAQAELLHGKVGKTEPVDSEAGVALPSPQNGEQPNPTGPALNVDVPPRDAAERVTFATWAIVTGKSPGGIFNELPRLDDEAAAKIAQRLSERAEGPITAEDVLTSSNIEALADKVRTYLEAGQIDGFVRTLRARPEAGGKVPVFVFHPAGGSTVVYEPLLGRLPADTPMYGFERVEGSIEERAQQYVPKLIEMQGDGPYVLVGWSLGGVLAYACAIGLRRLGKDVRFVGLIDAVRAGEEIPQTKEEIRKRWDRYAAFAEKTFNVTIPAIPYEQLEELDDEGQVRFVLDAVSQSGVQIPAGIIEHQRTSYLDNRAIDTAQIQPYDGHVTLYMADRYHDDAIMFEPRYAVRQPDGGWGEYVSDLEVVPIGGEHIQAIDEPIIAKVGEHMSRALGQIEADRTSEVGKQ

Leishmania in macrophages: 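Cell assay of Leishmania donovani living inside macrophages; the read-out is not stated. Tested at 30 µM. The record gives no direction; compounds that gave an IC50 in retests scored well above the rest, so higher reads as stronger inhibition. Of about 69,000 compounds tested this way, about 1,000 (1.5%) reached 50% or more in at least one test.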
Toxoplasma: 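Assay of Toxoplasma gondii numbers, read through their beta-galactosidase reporter with a colour substrate. Compounds at 10 µM. The record gives no direction; the compounds picked for IC50 retests had high values, so higher reads as fewer parasites. About 67,000 compounds were tested under these conditions; 0.38% (about 260) showed 50% or more at least once.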
ClpP1P2: 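ClpP1P2, Mycobacterium tuberculosis (UniProt P9WPC5 and UniProt P9WPC3). Protease assay of ClpP1P2, read by the AMC dye that it sets free. Tested at 50 µM. Higher reads as stronger inhibition, judged from the few compounds that gave an IC50. Most other retested compounds had strongly negative values. Size under these conditions: about 69,000 compounds, about 10 of them at 50% or above in at least one test.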
T. brucei: 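Whole-parasite assay of Trypanosoma brucei over 72 hours; the read-out is not stated. Compounds at 30 µM. The record gives no direction; compounds that gave an IC50 in retests scored well above the rest, so higher reads as stronger inhibition. Values scatter widely below zero; nearly all retest evidence comes from the higher of the two concentrations used. Of about 64,000 compounds tested this way, about 940 (1.5%) reached 50% or more in at least one test.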
Pks13 thioesterase: 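Polyketide synthase Pks13, Mycobacterium tuberculosis (UniProt I6X8D2). Enzyme assay of the thioesterase domain of polyketide synthase 13; the read-out is not stated. Concentration: 30 µM. Higher reads as stronger inhibition (inferred from which compounds were picked for retests). Size under these conditions: about 67,000 compounds, about 300 of them at 50% or above in at least one test.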

The filed quantity is “Percent Effect” (%). How 0% and 100% were set is not recorded. Most values in the screen are low, and negative values occur. Compounds were drawn at random from those tested, without regard to their results. Two or more numbers in one place are separate tests of the same structure; such repeats can differ widely. A dash means the value is not listed here; it may have been measured.

structure | Leishmania in macrophages | Toxoplasma | ClpP1P2 | T. brucei | Pks13 thioesterase
CC(=O)N1N=C(c2ccccc2)OC1C(=O)N(C)Cc1ccccc1 (stereo unspecified) | 16.64 | -0.02689 | -9.541 | -2.331 | 10.22
Cc1ccc(CN2CCN(C3CCSCC3)CC2CCO)o1 (stereo unspecified) | 6.835 | -2.813 | -8.875 | -42.23 | -8.128
O=C(O)C(F)(F)F.O=C(O)C(F)(F)F.[H][C@@]12C[C@H](C(=O)Nc3cccnc3)[C@@]([H])(CN(CCC(C)C)C1)O2 | 30.57 | -17.7 | - | -772.7 | -
Cc1cnn(C2CN(CC(=O)NCC3(c4ccccc4)CCC3)C2)c1 | 37.3 | -10.15 | -0.4265 | -26.06 | -43.4
COCCOCCCC(=O)N1CCC(Cc2ccccc2OC)CC1 | -2.505 | -1.444 | -2.448 | -6.81 | -1.69
CCN1CCCC(O)(CNCc2ccc3c(c2)OCO3)C1 (stereo unspecified) | 24.49 | 2.526 | 5.643 | 4.263 | -15.2
CNc1ncccc1C(=O)N1CCCC2(CCN(C)CC2)CC1 | -1.474 | -0.7551 | 2.727 | -85.09 | 7.327
[H][C@@]12CN(c3ncc(F)cn3)C[C@]1(C(=O)NC)CCCN2c1ncccn1 | 5.868 and 30.72 | -3.837 | - | -45.32 | -
O=C(O)C(F)(F)F.[H][C@@]12COC[C@@H](CC(=O)N3CCCCO3)[C@]1([H])CN(Cc1ccc(F)cc1)C2 | 22.27 | 1.913 | - | 35.57 | -
CNc1ccnc(N2C[C@@H](C)[C@](O)(C3CCC3)C2)n1 | -13.48 | -1.937 | -0.6186 | 10.26 | -5.412
CCC(C)N(Cc1cccnc1)Cc1ccc2c(c1)OCCO2 (stereo unspecified) | 27.15 | -4.37 | 0.1019 | -17.2 | -30.91
Fc1ccc(OCCCNC2=NCCCN2)cc1.I | 46.47 | -3.565 | - | -7.988 | -
CS(=O)(=O)N1CCN(c2ccc(Nc3ccccn3)nn2)CC1 | 21.64 and 17.32 | 3.475 | 11.99 | 7.367 | -10.71
CCNc1nc(-c2cccnc2)c(-c2ccnc(N3CCCC3)n2)s1 | 15.08 and -3.159 | 21.95 | 8.547 | 21.08 | -88.81
CCOc1ncccc1NC(=O)N1CCN(c2cccc(C)c2C)CC1 | -4.158 | 4.308 | -0.9838 | -26.34 | -7.618
CCOC(=O)N1CCC(NC(=O)Nc2cccnc2OCC)CC1 | 21.62 | 26.21 | -20.08 | - | -9.21
CN1CCCN(C(=O)c2cnsn2)c2cc(Cl)ccc21 | 11.89 | 22.39 | -17.57 | -29.18 | -11.38
O=S(=O)(N1CCCCC1)N1CCCN(CC2CCCO2)CC1 (stereo unspecified) | 32.79 | 9.278 | -2.505 | -0.8625 | -4.638
CC(C)c1cc(NC(=O)c2ccc(NC3CC3)nc2)[nH]n1 | 31.86 | 3.917 | 1.076 | 40.22 | -13.54
COCCn1cc(C(=O)N2CCCC2c2cc(C)no2)ccc1=O (stereo unspecified) | 29.94 | -2.539 | -9.784 | -5.96 | -11.84
COCc1cncc2c1CCN(C(=O)c1cscn1)C2 | 4.64 | -1.659 | -5.194 | -19 | -55.52
Cc1nc(NCC2CC2)nc2c1COCC21CCNC1 (stereo unspecified) | 39.75 | -7.423 | 17.18 | -867.5 | -17.22
COC(=O)c1cccn1C1CCN(Cc2cccnc2)CC1 | 38.52 | -2.437 | -11.28 | - | -17.21
CS(=O)(=O)N1CCC2(CC1)CC(Oc1ccccn1)CO2.O=C(O)C(F)(F)F (stereo unspecified) | -1.178 | 22.7 | - | -73.53 | -
CN(CC1CCC1)C(=O)Nc1cccnc1-n1cncn1 | 9.212 | 7.487 | -8.541 | -31.57 | -16.42
COCCN1CCOCC12CCN(Cc1ccn(C)n1)CC2 | - | - | 7.518 | - | -2.961
COc1ccc(CNCc2c(C(C)C)nn(C)c2N(C)C)cn1 | 14.86 | 10.93 | -17.79 | -6.108 | -15.94
CN(C)CCN(Cc1ccc(Cl)cc1)C(=O)c1cnccn1 | 12.87 | -0.1264 | -14.96 | -22.25 | -16.5
Cc1nc(C2CCCN(C(=O)CCCn3ccnc3C)C2)no1 (stereo unspecified) | -12.5 | 1.271 | 3.569 | -20.4 | -7.801
Cc1cc(C)n(CC2CCCN2Cc2ccc(F)cc2C#N)n1 (stereo unspecified) | 15.97 | 8.322 | -8.032 | -29.78 | 6.279
Cc1cc2c(=O)n3c(nc2s1)CCN(C(=O)c1c(C)noc1C)CC3 | 12.7 | -35.61 | -11.41 | 7.485 | -2.159
CCN1CCN(C(=O)NCc2cc[nH]n2)CC1 | 16.48 | 6.331 | -30.31 | -17.28 | -4.49
Fc1cnc(N2CCCn3c(nnc3Cn3ccnc3)C2)nc1 | - | - | 2.647 | - | -6.003
c1cnc(N2CCC3(CCN(CC4CCOC4)C3)CC2)nc1 (stereo unspecified) | - | - | -6.596 | - | 1.807
CN1CCOC[C@H]1c1nc(-c2ccncc2)c[nH]1 | 30.16 | 1.264 | -0.1135 | 0.9546 | -2.668
[H][C@@]12CN(S(=O)(=O)c3ccc(F)cc3)C[C@@]1([H])OCC(=O)N2 | 25.5 | -19 | - | -4.239 | -
O=C(NCC1CCCO1)c1cc(COc2ccccc2F)[nH]n1 (stereo unspecified) | 1.884 | -44.99 | -3.759 | 4.511 | -23.79
CCOCCCn1c(NC(=O)c2cc(C)on2)nc2ccccc21 | 24.74 | -9.529 | -16.48 | - | -17.77
CC(C)c1noc(CN2CCN(C(=O)c3cccnc3O)CC2)n1 | 3.019 | -15.04 | -12.32 | -2.651 | -3.756
COc1nc2c(cc1C(=O)N1CCCCC1c1ccccn1)CCC2 (stereo unspecified) | -45.71 | -7.625 | -12.92 | 12.71 | -9.994
COc1ccccc1OC1(C(=O)O)CCN(c2nc(C)cnc2C)CC1 | -7.085 | 5.087 | -16.69 | -20 | -11.68
CC(C)Nc1ncnc2c1CCN(C(=O)CC1CCCC1)CC2 | 20.99 | 1.235 | 8.418 | 49.09 | -12.02
Cc1ccc2cc(C(=O)N3CCCN(C)CC3)ccc2n1 | -19.13 | 5.764 | -3.761 | 8.412 | -28.34
Cc1cc(C)n(-c2ccc(CNCc3ccc(F)c(F)c3)cn2)n1 | 1.012 | -0.3045 | -13.03 | 53.31 | -13.24
CCOc1cccc(NS(=O)(=O)c2cc(C)c(C(=O)O)s2)c1 | 5.912 | 0.1595 | -3.652 | 1.956 | 33.3
CC(CN1CCCC1=O)NC(=O)c1cc(=O)[nH]c2ccc(Cl)cc12 (stereo unspecified) | 16.34 | 3.887 | -3.454 | -15.63 | 3.804
[H][C@@]12CCN(C(=O)c3ccccn3)C[C@@]1([H])O[C@@H](C)C2 | 11.06 | 9.396 | - | -39.38 | -

The last 3 entries again:

{"structure": "CCOc1cccc(NS(=O)(=O)c2cc(C)c(C(=O)O)s2)c1", "Leishmania in macrophages": 5.912, "Toxoplasma": 0.1595, "ClpP1P2": -3.652, "T. brucei": 1.956, "Pks13 thioesterase": 33.3}
{"structure": "CC(CN1CCCC1=O)NC(=O)c1cc(=O)[nH]c2ccc(Cl)cc12", "stereo": "stereo unspecified", "Leishmania in macrophages": 16.34, "Toxoplasma": 3.887, "ClpP1P2": -3.454, "T. brucei": -15.63, "Pks13 thioesterase": 3.804}
{"structure": "[H][C@@]12CCN(C(=O)c3ccccn3)C[C@@]1([H])O[C@@H](C)C2", "Leishmania in macrophages": 11.06, "Toxoplasma": 9.396, "T. brucei": -39.38}

Data taken from ChEMBL document CHEMBL3988442, “University of Dundee, Small-Polar-MMV Screening Library” (2021).